20 molecules from PubChem BioAssay AID192 (DTP/NCI, 2004) can be followed below.

The list shows only some results of the screen, not a fair sample: it gathers tests that were run many times, whatever their T/C, doses with no T/C, and many T/C values between a quarter and a half above the control. Other doses and runs of a compound stand elsewhere. T/C is the treated group as % of the vehicle group. Some doses have a count of surviving animals in place of a T/C: the source files T/C as zero there, which appears to mark a toxic dose or a test without result, not a measured value. Some doses without a T/C left all or most animals alive at the check, yet need not have been tolerated: the source hardly ever lists a survival T/C far under the control, and the zero likely stands for such cases as well. Counts of survivors are from the toxicity check (mostly the fifth day) where no day follows; animals may have died later. Schedule codes are those of the source, read here as Q, the interval in days (D) or hours (H), X, the number of doses. Marks such as (2×) stand for listed records that agree. Some molecules as drawn cover several salts, stereoisomers or complexes of the source; a dose is that of the sample tested. Some entries were tested several times; the results are listed from low to high. For survival time, the PubChem record calls one and a half times the control and up active, and a quarter to a half above the control has no call in these data; cut-offs in other NCI protocols can differ. Some T/C values carry the count of animals alive at the toxicity check (mostly the fifth day); without a count, all were alive then.

For the assay, the system named is BDF1 mice, B16 melanoma ip, median survival T/C. Briefly: NCI In Vivo Anticancer Drug Screen. Data for tumor model B16 Melanoma (intraperitoneal) in B6D2F1 (BDF1) mice. The note with it: T/C endpoint: median survival time, higher T/C = longer survival. The method, boiled down: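 Antitumor activity is assessed in mice bearing a transplanted tumor, with survival or tumor size compared against vehicle-dosed controls and expressed as T/C.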

Where [1] appears, read: dose: 25.0 mg/kg/injection, schedule: Q01DX009 (ip), vehicle: saline with Tween-80.
[2] abbreviates: dose: 50.0 mg/kg/injection, schedule: Q01DX009 (ip), vehicle: Klucel (hydroxypropylcellulose) (HPC).
The mark [3] stands for this setting: dose: 100.0 mg/kg/injection, schedule: Q01DX009 (ip), vehicle: Klucel (hydroxypropylcellulose) (HPC).
[4] abbreviates: dose: 200.0 mg/kg/injection, schedule: Q01DX009 (ip), vehicle: Klucel (hydroxypropylcellulose) (HPC).
Where [5] appears, read: dose: 25.0 mg/kg/injection, schedule: Q01DX009 (ip), vehicle: saline.
Setting [6] is: dose: 50.0 mg/kg/injection, schedule: Q01DX009 (ip), vehicle: saline.
Setting [7] is: dose: 100.0 mg/kg/injection, schedule: Q01DX009 (ip), vehicle: saline.
Where [8] appears, read: dose: 200.0 mg/kg/injection, schedule: Q01DX009 (ip), vehicle: saline.
Setting [9] is: dose: 400.0 mg/kg/injection, schedule: Q01DX009 (ip), vehicle: saline.
Where [10] appears, read: dose: 100.0 mg/kg/injection, schedule: Q01DX009 (ip), vehicle: saline with Tween-80.
Where [11] appears, read: dose: 200.0 mg/kg/injection, schedule: Q01DX009 (ip), vehicle: saline with Tween-80.
Setting [12] is: dose: 400.0 mg/kg/injection, schedule: Q01DX009 (ip), vehicle: Klucel (hydroxypropylcellulose) (HPC).
The mark [13] stands for this setting: dose: 25.0 mg/kg/injection, schedule: Q01DX009 (ip), vehicle: Klucel (hydroxypropylcellulose) (HPC).

Turning to `COc1ccc2c(c1OC(C)=O)-c1cc(O)cc3c1C(C2)N(C(=O)CN(CCCl)CCCl)CC3` (configuration not stated), the T/C (dose: 1.56 mg/kg/injection, schedule: Q01DX009 (ip), vehicle: saline with Tween-80) was 129 % of control; the T/C (dose: 12.5 mg/kg/injection, schedule: Q04DX003 (ip), vehicle: DMSO) was 134 and 141 % of control [9 of 10 alive]; the T/C (dose: 25.0 mg/kg/injection, schedule: Q04DX003 (ip), vehicle: DMSO) is 135 and 144 % of control; the T/C (dose: 50.0 mg/kg/injection, schedule: Q04DX003 (ip), vehicle: DMSO) is 136 % of control [9 of 10 alive]. For the same molecule, the survivor count is, setting by setting: under setting [1], 10 of 10; (dose: 100.0 mg/kg/injection, schedule: Q04DX003 (ip), vehicle: DMSO) 9 of 10 and 10 of 10.

As for `Nc1ncnc2c1ncn2C1OC(CO)C(O)C1O` (configuration not stated), the T/C (dose: 300.0 mg/kg/injection, schedule: Q01DX009 (ip), vehicle: saline) was 131 % of control.

For `COC1(OC)C2(Cl)C(Cl)=C(Cl)C1(Cl)C1C(=O)C=CC(=O)C12` (configuration not stated), the survivor count (dose: 12.5 mg/kg/injection, schedule: Q01DX009 (ip), vehicle: Klucel (hydroxypropylcellulose) (HPC)) is given as 10 of 10; the survivor count under setting [2] is 10 of 10; the survivor count under setting [3] is listed as 10 of 10; the survivor count under setting [4] was 10 of 10.

Regarding `O=C1NC(C2CCC3CN32)C(=O)NC1C1CCC2CN21` (configuration not stated), the T/C (dose: 0.8 mg/kg/injection, schedule: Q01DX009 (ip), vehicle: saline) is 126 % of control.

With `CCN(CC)[P+](c1ccccc1O)(N(CC)CC)N(CC)CC`, the survivor count reads like this: (dose: 12.5 mg/kg/injection, schedule: Q01DX009 (ip), vehicle: saline) 1 of 10; under setting [5], 0 of 10; under setting [6], 0 of 10; under setting [7], 0 of 10; under setting [8], 0 of 10; under setting [9], 0 of 10.

`CCCCCCCCCCCCCCCCCCNC(=O)Nc1ccccc1CC`: the survivor count runs as follows: under setting [10], 10 of 10; under setting [11], 10 of 10.

On to `CCCCN(C)/N=N/c1nc[nH]c1C(N)=O`, for which the survivor count (dose: 40.0 mg/kg/injection, schedule: Q01DX009 (ip), vehicle: carboxymethylcellulose (CMC)) is 6 of 6; the survivor count (dose: 80.0 mg/kg/injection, schedule: Q01DX009 (ip), vehicle: carboxymethylcellulose (CMC)) is 6 of 6; the survivor count under setting [10] is 10 of 10; the survivor count (dose: 160.0 mg/kg/injection, schedule: Q01DX009 (ip), vehicle: carboxymethylcellulose (CMC)) is reported as 3 of 6; the survivor count under setting [11] is listed as 10 of 10.

Consider `Cn1c(=O)c2c(ncn2CCO)n(C)c1=O`, for which, under setting [9], the survivor count was 4 of 10.

With `O=c1[nH]c(=O)n([C@H]2CCCO2)cc1F`, the survivor count was 9 of 10 (dose: 6.25 mg/kg/injection, schedule: Q01DX009 (ip), vehicle: saline); 10 of 10 under setting [4]; 10 of 10 (2×) under setting [8]; 10 of 10 under setting [12]; 10 of 10 (2×) under setting [9].

`O=C1C=CC(=O)O1` (tested in a mixture with another compound): the T/C was 130 % of control under setting [13]; 135 % of control (dose: 25.0 mg/kg/injection, schedule: Q01DX009 (ip), vehicle: other); 136 % of control (dose: 25.0 mg/kg/injection, schedule: Q04DX003 (ip), vehicle: saline); 137 % of control (dose: 37.5 mg/kg/injection, schedule: Q04DX003 (ip), vehicle: Klucel (hydroxypropylcellulose) (HPC)); 126 % of control (dose: 50.0 mg/kg/injection, schedule: Q01DX009 (ip), vehicle: other); 141 % of control (dose: 50.0 mg/kg/injection, schedule: Q04DX003 (ip), vehicle: saline). Also, the T/C (dose: 75.0 mg/kg/injection, schedule: Q04DX003 (ip), vehicle: Klucel (hydroxypropylcellulose) (HPC)) is 125 % of control; the T/C (dose: 100.0 mg/kg/injection, schedule: Q01DX009 (ip), vehicle: other) was 135 % of control; the T/C (dose: 100.0 mg/kg/injection, schedule: Q04DX003 (ip), vehicle: saline) was 147 % of control; the T/C under setting [4] was 132 % of control; the T/C (dose: 400.0 mg/kg/injection, schedule: Q04DX003 (ip), vehicle: saline) is 148 % of control [9 of 10 alive].

For `Nc1c(Cl)cc(C(=O)NC2CC2)cc1Cl`, the survivor count under setting [7] is on record as 10 of 10.

On to `Cc1c(CCl)c(C)c(CCl)c(C)c1CCl`, for which the survivor count under setting [13] was 9 of 9, the survivor count under setting [2] was 10 of 10 and the survivor count under setting [3] was 3 of 10.

Take `O=c1oc2c3ccccc3c3ccccc3c2o1`: the survivor count is reported as 10 of 10 under setting [2], 9 of 10 under setting [3], 0 of 10 under setting [4] and 0 of 10 under setting [12].

`Cc1ccccc1N(CC1CO1)CC1CO1` (configuration not stated): the T/C under setting [1] is 137 % of control. Moreover, the survivor count is given as 5 of 10 under setting [11] and 0 of 10 (dose: 400.0 mg/kg/injection, schedule: Q01DX009 (ip), vehicle: saline with Tween-80).

In the case of `Nc1nc(N)c2c(Cl)c(CNc3ccc(Cl)c(Cl)c3)ccc2n1`, the T/C by setting is: (dose: 6.25 mg/kg/injection, schedule: Q01DX009 (ip), vehicle: saline with Tween-80) 125 % of control; (dose: 8.0 mg/kg/injection, schedule: Q01DX009 (ip), vehicle: saline with Tween-80) 125 % of control; (dose: 12.5 mg/kg/injection, schedule: Q01DX009 (ip), vehicle: saline with Tween-80) 137 % of control. The survivor count by setting is: under setting [1], 10 of 10; (dose: 50.0 mg/kg/injection, schedule: Q01DX009 (ip), vehicle: saline with Tween-80) 10 of 10; under setting [10], 10 of 10.

For `CC1CCCN(C)C1` (configuration not stated), the T/C under setting [13] was 126 % of control.

Take `O=C(O)C1(C(=O)O)CCCCC1.[NH2-].[NH2-].[Pt+2]`: for the setting “dose: 3.12 mg/kg/injection, schedule: Q01DX009 (ip), vehicle: saline”, the T/C is 128 % of control.

Take `Cc1ccc(Cl)cc1NC(=O)c1ccc(Cl)cc1Cl`: the survivor count (dose: 400.0 mg/kg/injection, schedule: Q04DX003 (ip), vehicle: Klucel (hydroxypropylcellulose) (HPC)) is recorded as 10 of 10.

As to `NC(N)=Nc1ccc(C(=O)Oc2ccc([N+](=O)[O-])cc2[N+](=O)[O-])cc1`, under setting [3], the survivor count is listed as 10 of 10.

For the molecule `COc1cccc(/C=N\N=C\c2cccc(OC)c2OC)c1OC`, the survivor count is listed as 10 of 10 under setting [5], 8 of 10 under setting [6], 10 of 10 under setting [7] and 9 of 10 under setting [8].
